Results from cells or extracts need not show a direct contact. No signal at the amounts used counts as a negative. Whether high values mean tight binding is not given here for every scale.
Target: DEC205 (CD205, LY75), mouse, surface-expressed (Mus musculus) (UniProt Q60767)
Test: flow cytometry
Conditions: 2'-F pyrimidines, 3' idT, 5' thiol, protein on the cell surface, label: Alexa Fluor 488 (5')

Protein sequences, listed by entry. Tags and fused reporters are not part of them. Residues count along the entry.
UniProt Q60767, 28-1723: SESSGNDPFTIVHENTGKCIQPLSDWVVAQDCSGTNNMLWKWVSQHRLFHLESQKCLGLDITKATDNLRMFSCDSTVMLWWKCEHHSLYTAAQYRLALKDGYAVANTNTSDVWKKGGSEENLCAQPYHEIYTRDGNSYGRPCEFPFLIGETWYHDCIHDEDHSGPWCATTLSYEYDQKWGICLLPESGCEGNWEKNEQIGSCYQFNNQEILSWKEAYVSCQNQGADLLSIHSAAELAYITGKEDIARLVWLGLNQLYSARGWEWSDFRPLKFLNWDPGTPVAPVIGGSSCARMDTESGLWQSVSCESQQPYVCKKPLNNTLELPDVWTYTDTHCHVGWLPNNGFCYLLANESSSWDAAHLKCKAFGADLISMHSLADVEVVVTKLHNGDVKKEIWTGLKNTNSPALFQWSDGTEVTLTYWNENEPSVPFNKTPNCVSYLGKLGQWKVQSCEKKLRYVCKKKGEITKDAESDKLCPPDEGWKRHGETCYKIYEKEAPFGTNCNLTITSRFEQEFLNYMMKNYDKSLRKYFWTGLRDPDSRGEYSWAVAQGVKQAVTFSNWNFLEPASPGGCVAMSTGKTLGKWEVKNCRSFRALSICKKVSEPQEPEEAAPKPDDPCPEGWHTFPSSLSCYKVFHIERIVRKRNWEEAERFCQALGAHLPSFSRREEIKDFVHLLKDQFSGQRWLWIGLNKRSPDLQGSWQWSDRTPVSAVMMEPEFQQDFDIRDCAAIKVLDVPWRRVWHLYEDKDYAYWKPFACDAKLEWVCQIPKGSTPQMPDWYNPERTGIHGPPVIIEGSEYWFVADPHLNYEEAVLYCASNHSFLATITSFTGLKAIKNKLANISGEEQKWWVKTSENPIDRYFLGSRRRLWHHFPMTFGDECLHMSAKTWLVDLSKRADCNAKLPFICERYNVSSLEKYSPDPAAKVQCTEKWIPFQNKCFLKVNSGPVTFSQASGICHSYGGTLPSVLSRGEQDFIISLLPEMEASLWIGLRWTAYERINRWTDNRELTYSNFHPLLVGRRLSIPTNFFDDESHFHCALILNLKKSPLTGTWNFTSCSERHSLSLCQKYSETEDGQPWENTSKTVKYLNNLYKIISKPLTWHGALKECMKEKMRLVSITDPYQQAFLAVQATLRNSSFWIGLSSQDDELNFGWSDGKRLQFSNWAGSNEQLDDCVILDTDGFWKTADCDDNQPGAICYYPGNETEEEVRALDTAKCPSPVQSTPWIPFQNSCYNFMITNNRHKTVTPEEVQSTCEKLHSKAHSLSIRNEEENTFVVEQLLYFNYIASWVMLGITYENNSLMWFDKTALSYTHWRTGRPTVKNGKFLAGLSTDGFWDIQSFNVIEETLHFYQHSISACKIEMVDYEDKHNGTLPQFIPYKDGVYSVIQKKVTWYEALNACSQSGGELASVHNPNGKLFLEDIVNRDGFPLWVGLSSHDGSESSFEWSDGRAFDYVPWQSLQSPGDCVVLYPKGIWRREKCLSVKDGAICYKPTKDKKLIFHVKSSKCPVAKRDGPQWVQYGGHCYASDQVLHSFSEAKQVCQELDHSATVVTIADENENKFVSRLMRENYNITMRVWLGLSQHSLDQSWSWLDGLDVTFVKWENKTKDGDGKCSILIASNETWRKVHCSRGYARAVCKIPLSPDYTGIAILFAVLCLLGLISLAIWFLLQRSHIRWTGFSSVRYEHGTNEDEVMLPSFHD

In the case of “GGCGUAGUGAUUAUGAAUCGUGUGCUAAUACACGCC [cntrl.36 (c36)]”, the binding result (nonspecific control, A20.Kb/mDEC205 cells, RPMI, 37 C, described as non-binding aptamer) is reported as “no binding” and the binding signal (uptake 100-fold lower than min.2, 3:1 streptavidin multimer, 20 nM, 1 h, counted as no binding) is reported as 39 MFI.

— patent US20150191730A1, “APTAMER-TARGETTED ANTIGEN DELIVERY” (ALBERT EINSTEIN COLLEGE OF MEDICINE OF YESHIVA UNIVERSITY, published 2015)
